PMC11847538
Results are given in words; binding and its absence hold for the method and conditions named. In cells and extracts the contact can be indirect. Some binding calls cover weakened binding; strength is not graded here. Tags and fused reporters may be left off the sequences shown.

Target: T1, Flag-tagged Miy1 (S. cerevisiae) (UniProt Q08930)
T1 sequence: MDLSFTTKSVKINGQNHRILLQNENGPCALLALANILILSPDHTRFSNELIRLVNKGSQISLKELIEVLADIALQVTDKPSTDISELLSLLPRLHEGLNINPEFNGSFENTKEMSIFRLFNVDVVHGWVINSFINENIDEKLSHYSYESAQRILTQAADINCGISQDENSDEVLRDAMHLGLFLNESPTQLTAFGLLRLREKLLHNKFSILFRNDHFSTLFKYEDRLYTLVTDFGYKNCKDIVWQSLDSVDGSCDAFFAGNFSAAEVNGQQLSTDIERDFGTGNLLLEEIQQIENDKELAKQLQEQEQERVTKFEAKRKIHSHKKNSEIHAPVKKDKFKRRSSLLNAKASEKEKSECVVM
Test: co-IP; lysate of yeast cells cotransformed with pAD4M-Gpa1 and pYES-FLAG-Miy1 or empty vector; anti-FLAG M2 affinity resin, 2 h, 4 °C; lysis buffer 50 mM NaPO4 pH 7.5, 400 mM NaCl, 0.1% Triton X-100, 10% glycerol; immunoblot with anti-Gpa1

B1: Gpa1 (protein, UniProt P08539 1-472)
chain: MGCTVSTQTIGDESDPFLQNKRANDVIEQSLQLEKQRDKNEIKLLLLGAGESGKSTVLKQLKLLHQGGFSHQERLQYAQVIWADAIQSMKILIIQARKLGIQLDCDDPINNKDLFACKRILLKAKALDYINASVAGGSDFLNDYVLKYSERYETRRRVQSTGRAKAAFDEDGNISNVKSDTDRDAETVTQNEDADRNNSSRINLQDICKDLNQEGDDQMFVRKTSREIQGQNRRNLIHEDIAKAIKQLWNNDKGIKQCFARSNEFQLEGSAAYYFDNIEKFASPNYVCTDEDILKGRIKTTGITETEFNIGSSKFKVLDAGGQRSERKKWIHCFEGITAVLFVLAMSEYDQMLFEDERVNRMHESIMLFDTLLNSKWFKDTPFILFLNKIDLFEEKVKSMPIRKYFPDYQGRVGDAEAGLKYFEKIFLSLNKTNKPIYVKRTCATDTQTMKFVLSAVTDLIIQQNLKKIGII
binding: binds
